Laboratory results from PubChem BioAssay AID1487 (National Center for Advancing Translational Sciences (NCATS), 2009).
The other results are listed elsewhere or left out. These are further read-outs of the screen, such as a control signal, another cell line or another target. No call is given for them. The list favours compounds with an active or inconclusive main result. Potencies come from curve fits of mixed quality, noted in brackets.

Test: qHTS Assay for Modulators of Lamin A Splicing
Details: HeLa LMNA splicing GFP/RFP minigene ratio, 48 h
Summary of the method: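 S3 HeLa cells stably expressing lamin A-EGFP splicing minigene plus DsRed2, 600 cells/well, 48 h compound exposure at 37C. Laser-scanning cytometry; analysed as GFP (500-530 nm)/RFP (575-640 nm) total intensity ratio; 0.5% DMSO vehicle.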

[1] = measured here: GFP splicing reporter channel
[2] = measured here: RFP viability control channel

| Compound | AC50 [1] | AC50 [2] |
| --- | --- | --- |
| CNC(=O)c1ccsc1NC(=O)c1ccc(S(=O)(=O)N2CCCc3ccccc32)cc1 | 11.2 µM [rising, single point] | 12.6 µM [rising, partial curve] |
| Cc1nonc1OCCn1c([N+](=O)[O-])cnc1C |  | 0.447 µM [rising, full curve, poor fit] |
| COc1cccc(-c2nc(CS(=O)(=O)CC(=O)N3CCN(c4ccccn4)CC3)c(C)o2)c1 |  | 12.6 µM [rising, partial curve] |
| CCc1ccc(C(=O)CN2CCSC2=N)cc1 | 12.6 µM [rising, partial curve] | 14.1 µM [rising, single point] |
| Cn1c(=O)n(C)c2cc(S(=O)(=O)NCCc3ccccc3)ccc21 | 12.6 µM [rising, single point] | 14.1 µM [rising, partial curve] |
| Cc1cc2nc(SC(C)C(=O)O)[nH]c2cc1C (stereo not given) | 12.6 µM [rising, partial curve, poor fit] |  |
| CCN(CC)CCNC(=O)C(=O)Nc1c2c(nn1-c1ccc(F)cc1)CSC2 | 2.51 µM [falling, full curve, poor fit] |  |
| Cc1ccn2c(NC3CCCCC3)c(C)nc2c1 | 20 µM [rising, single point] | 14.1 µM [rising, single point] |
| COc1ccc(-n2c(C)nc3sc4c(c3c2=O)CCCC4)cc1 |  | 2.24 µM [rising, partial curve, poor fit] |
| O=C(Nc1nncs1)c1ccc(N2C(=O)C3C4C=CC(C4)C3C2=O)cc1 (stereo not given) |  | 20 µM [rising, partial curve, poor fit] |
| c1coc(-c2nc(-c3ccco3)c(-c3ccco3)nc2-c2ccco2)c1 | 2.82 µM [rising, full curve, poor fit] | 7.08 µM [rising, single point] |
| O=C(CSCc1c(Cl)cccc1Cl)NN=C1CCCC1 |  | 15.8 µM [rising, partial curve, poor fit] |
| CCc1ccc(NC(=O)CSc2nnc3[nH]c(=O)cc(-c4ccccc4)n23)cc1 | 17.8 µM [rising, partial curve, poor fit] | 7.08 µM [rising, partial curve] |
| CC(=O)c1cccc(NC(=S)NCCCCc2ccccc2)c1 |  | 0.224 µM [rising, partial curve, poor fit] |
| N#Cc1c(NC(=O)c2cc(-n3cnnc3)ccc2Cl)sc2c1CCCC2 |  | 14.1 µM [rising, single point] |
| COc1ccc(OC)c(S(=O)(=O)N2CCCCC2C(=O)N2CCN(c3ccccn3)CC2)c1 (stereo not given) |  | 3.16 µM [falling, partial curve, poor fit] |
| CCOC(=O)c1cnc(-c2ccccc2)nc1C(F)(F)F | 0.00501 µM [rising, full curve, poor fit] |  |
| COc1cc(CNc2ccc3[nH]c(=O)[nH]c3c2)ccc1OCc1ccc(F)cc1Cl | 8.91 µM [falling, partial curve, poor fit] | 20 µM [falling, partial curve, poor fit] |
| Cc1ccc([N+](=O)[O-])cc1NC1OC(CO)C(O)C1O (stereo not given) | 1.41 µM [rising, partial curve, poor fit] |  |
| Cc1ccc(C)c(N2CCN(C(=O)c3cc(S(=O)(=O)N4CCOCC4)ccc3F)CC2)c1 | 14.1 µM [rising, single point] | 25.1 µM [rising, partial curve] |
| CC(C)Oc1cccc(C(=O)C2CCCN(Cc3cnc(N4CCOCC4)s3)C2)c1 (stereo not given) |  | 0.00355 µM [falling, full curve, poor fit] |
| O=C(N/N=C/c1ccccn1)C12CC3CC(CC(C3)C1)C2 | 31.6 µM [rising, single point] | 25.1 µM [rising, single point] |
| COc1ccc(N2CCN(C(=O)CNC(=O)c3ccc(C(C)(C)C)cc3)CC2)cc1 | 11.2 µM [rising, partial curve, poor fit] | 15.8 µM [rising, single point] |
| O=C1NC2(CCCc3ccccc32)C(=O)N1Cc1nnc(-c2ccccc2Br)o1 (stereo not given) | 11.2 µM [rising, partial curve] | 14.1 µM [rising, single point] |
| CC(=O)N(CC(O)CN(C(C)=O)c1c(I)c(C(=O)NC[C@@H](O)CO)c(I)c(C(=O)NC[C@@H](O)CO)c1I)c1c(I)c(C(=O)NC[C@@H](O)CO)c(I)c(C(=O)NC[C@@H](O)CO)c1I | 0.891 µM [rising, full curve, poor fit] | 0.0562 µM [rising, full curve, poor fit] |
| Cc1ccc2c(Cn3cc(C(F)(F)F)cc(Cl)c3=O)cc(=O)oc2c1 |  | 2.51 µM [rising, single point] |
| O=c1c2ccccc2nnn1CSc1nc2ccccc2c(=O)n1Cc1ccco1 |  | 11.2 µM [rising, partial curve, poor fit] |

| Compound | AC50 [1] | AC50 [2] |
| --- | --- | --- |
| O=C(CCC1N=C2c3ccccc3N=C(SCc3ccccc3Cl)N2C1=O)NCc1ccco1 (stereo not given) | 22.4 µM [rising, single point] |  |
| CC(C)(C)c1ccc(NC(=O)NC2CCCc3ccccc32)cc1 (stereo not given) |  | 11.2 µM [falling, partial curve] |
| Cc1ccc(Nc2nnc(SCC(=O)Nc3cccc(S(=O)(=O)N4CCCCC4)c3)s2)cc1 |  | 35.5 µM [rising, single point] |
| CCCc1cnc2c(c1SCc1cccc(F)c1)c(=O)n(C)c(=O)n2C | 11.2 µM [rising, partial curve] | 12.6 µM [rising, partial curve] |
| O=C(CCl)N(c1ccccc1)C1CCS(=O)(=O)C1 (stereo not given) | 35.5 µM [falling, single point] | 2.82 µM [falling, partial curve] |
| O=S(=O)(Nc1cccc(-c2cn3ccsc3n2)c1)c1ccc(F)cc1 |  | 17.8 µM [rising, single point] |
| Cc1noc(C)c1-c1nccc(NCc2ccccc2)n1 | 12.6 µM [falling, partial curve] |  |
| COc1ccc(-c2cc(-c3ccccc3O)[nH]n2)cc1 |  | 14.1 µM [rising, single point] |
| CC(OC(=O)CN1C(=O)C2CCCCC2C1=O)C(=O)Nc1ncc(Cl)cc1Cl (stereo not given) | 0.631 µM [falling, full curve] | 0.891 µM [falling, full curve] |
| O=C(CSc1ncnc2ccccc12)NCC(=O)c1ccccc1 | 10 µM [falling, partial curve, poor fit] |  |
| COc1cccc(/C=N/Nc2ncnc3scc(-c4ccccc4)c23)c1O | 14.1 µM [rising, partial curve] | 25.1 µM [rising, partial curve] |
| Cc1ccc(CSc2nc3c(cc2C#N)CCC3)cc1 | 6.31 µM [falling, single point] |  |
| CC(C)CC(=O)NC(=S)NNC(=O)c1cccc([N+](=O)[O-])c1 |  | 35.5 µM [rising, single point] |
| Cc1ccc(S(=O)(=O)c2nc(S(C)(=O)=O)sc2NCc2ccc3c(c2)OCO3)cc1 |  | 25.1 µM [rising, single point] |
| CCn1c(=N)n(CC(O)COc2ccccc2)c2ccccc21 (stereo not given) | 0.158 µM [rising, full curve, poor fit] |  |
| CCOC(=O)C1=C(C)N(C)C(=S)NC1c1ccc(Cl)cc1Cl (stereo not given) | 12.6 µM [rising, partial curve, poor fit] | 35.5 µM [rising, single point] |
| COc1ccccc1NC(=O)Cn1c(=O)n(-c2cccc(C)c2)c(=O)c2c1c1cc(C)ccc1n2C |  | 0.0158 µM [falling, full curve, poor fit] |
| Cn1ccnc1C(O)c1cc(C(C)(C)C)c(O)c(C(C)(C)C)c1 (stereo not given) | 2.82 µM [falling, single point] | 2.51 µM [falling, single point] |
| CC12CC(NC(=O)N1CCc1ccccc1)c1cc(Cl)ccc1O2 (stereo not given) | 12.6 µM [rising, single point] | 11.2 µM [rising, partial curve] |
| Cc1ccc(CN2CC(C(=O)Nc3cc(S(C)(=O)=O)ccc3Cl)CC2=O)cc1 (stereo not given) | 35.5 µM [rising, single point] | 35.5 µM [rising, single point] |
| COc1ccc(Nc2sc(C(=O)Nc3cccc(Cl)c3)c(N)c2C(=O)Nc2ccccc2OC)cc1 |  | 15.8 µM [rising, single point] |
| COc1ccc(NC(=O)CN2CCCC(C)C2)c([N+](=O)[O-])c1 (stereo not given) | 20 µM [rising, single point] | 35.5 µM [rising, single point] |
| Clc1ccc(/C=N/N2CCN(Cc3ccccc3Cl)CC2)cc1 |  | 31.6 µM [rising, single point] |
| COc1ccc(N(C(=O)c2ccc(C)cc2)S(=O)(=O)c2cccs2)cc1 |  | 35.5 µM [rising, single point] |
| CCOc1ccc(Br)cc1/C(C)=N\NC1=NCCN1 | 10 µM [rising, single point] | 11.2 µM [rising, partial curve] |
| CCCNC(=O)Cn1cnc2sc(C(=O)N3CCCC(C(=O)OCC)C3)c(C)c2c1=O (stereo not given) | 0.01 µM [rising, full curve, poor fit] |  |

Random excerpt: 2 records from the list

| Compound | AC50 [1] | AC50 [2] |
| --- | --- | --- |
| Cc1ccc(CN2CC(C(=O)Nc3cc(S(C)(=O)=O)ccc3Cl)CC2=O)cc1 (stereo not given) | 35.5 µM [rising, single point] | 35.5 µM [rising, single point] |
| Clc1ccc(/C=N/N2CCN(Cc3ccccc3Cl)CC2)cc1 |  | 31.6 µM [rising, single point] |
